Experimental data from US20110034556A1, “USE OF TRANSGLUTAMINASE INHIBITOR IN SKIN TREATMENT” (priority 2007, published 2011).
At least one structure is not confirmed: it was looked up by name or label, or the drawing left a doubt.

Test: Case 3: ulceration after chemical peel with tricloroacetic acid
Type: in vivo, human
Conditions: person after chemical peel; trial of three days

C[C@H]1C[C@H]2[C@@H]3CCC4=CC(=O)C=C[C@]4(C)[C@@]3(F)[C@@H](O)C[C@]2(C)[C@@]1(O)C(=O)CO [betamethasone]
relief of itchy, weepy ulceration: ineffective
